According to PMC7563657:
No constants are given. Whether binding was seen depends on the method and setting. Binding seen in cells or lysates may run through a third protein. For some assays here: Binding calls can cover weak binding; strength is not graded here.

How the values were obtained:
[1] = biological target: T1, I-kappa B Kinase α (IKKα) (mouse (endogenous in BMPC of C57BL/6 mice)) (UniProt Q60680); experiment: co-IP; lysates of murine BMPC incubated with endotoxin-containing ovalbumin (50 μg/mL); indicated primary antibody (Rab5, Akt, IKKα or IKKβ) or control IgG overnight at 4 °C in RIPA buffer, Protein A/G agarose beads, Western blot; some panels also with control siRNA or DMSO, siRNA or wortmannin/Bay11-7082 pretreatment
T1 sequence: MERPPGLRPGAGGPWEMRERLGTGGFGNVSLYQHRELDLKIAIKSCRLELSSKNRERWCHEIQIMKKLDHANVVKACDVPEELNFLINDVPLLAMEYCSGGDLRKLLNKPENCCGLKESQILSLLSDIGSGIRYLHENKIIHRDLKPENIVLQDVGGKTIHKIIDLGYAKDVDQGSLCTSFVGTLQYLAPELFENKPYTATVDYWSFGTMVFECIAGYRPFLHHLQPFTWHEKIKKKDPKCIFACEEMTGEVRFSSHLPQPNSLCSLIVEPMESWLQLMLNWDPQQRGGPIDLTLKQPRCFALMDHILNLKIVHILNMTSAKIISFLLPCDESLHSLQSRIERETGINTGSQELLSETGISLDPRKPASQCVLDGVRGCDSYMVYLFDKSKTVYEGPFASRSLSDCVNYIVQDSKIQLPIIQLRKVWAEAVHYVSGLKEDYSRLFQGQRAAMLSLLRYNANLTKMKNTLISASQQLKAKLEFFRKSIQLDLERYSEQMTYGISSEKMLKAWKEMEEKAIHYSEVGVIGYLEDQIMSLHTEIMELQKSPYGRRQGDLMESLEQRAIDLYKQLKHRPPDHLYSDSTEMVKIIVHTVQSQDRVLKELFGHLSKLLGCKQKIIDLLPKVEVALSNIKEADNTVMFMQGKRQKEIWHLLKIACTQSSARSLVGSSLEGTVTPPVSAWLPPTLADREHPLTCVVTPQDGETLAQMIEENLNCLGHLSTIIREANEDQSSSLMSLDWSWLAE

[2] = biological target: Rab5 (mouse (endogenous in BMPC of C57BL/6 mice)); experiment: as above
[3] = biological target: Protein kinase B (Akt) (mouse (endogenous in BMPC of C57BL/6 mice)); experiment: as above
[4] = biological target: Rab5 (mouse (endogenous in BMPC of C57BL/6 mice)); experiment: condition: only BMPC deficient (siRNA) in Akt, IKKα or IKKβ; co-IP; as a1 with Rab5 antibody, but BMPC made deficient in Akt, IKKα or IKKβ by siRNA before incubation with endotoxin-containing ovalbumin (50 μg/mL)

Rab5
binding [1]: binds

B1: I-kappa B Kinase α (IKKα) (enzyme, UniProt Q60680 1-745)
chain: MERPPGLRPGAGGPWEMRERLGTGGFGNVSLYQHRELDLKIAIKSCRLELSSKNRERWCHEIQIMKKLDHANVVKACDVPEELNFLINDVPLLAMEYCSGGDLRKLLNKPENCCGLKESQILSLLSDIGSGIRYLHENKIIHRDLKPENIVLQDVGGKTIHKIIDLGYAKDVDQGSLCTSFVGTLQYLAPELFENKPYTATVDYWSFGTMVFECIAGYRPFLHHLQPFTWHEKIKKKDPKCIFACEEMTGEVRFSSHLPQPNSLCSLIVEPMESWLQLMLNWDPQQRGGPIDLTLKQPRCFALMDHILNLKIVHILNMTSAKIISFLLPCDESLHSLQSRIERETGINTGSQELLSETGISLDPRKPASQCVLDGVRGCDSYMVYLFDKSKTVYEGPFASRSLSDCVNYIVQDSKIQLPIIQLRKVWAEAVHYVSGLKEDYSRLFQGQRAAMLSLLRYNANLTKMKNTLISASQQLKAKLEFFRKSIQLDLERYSEQMTYGISSEKMLKAWKEMEEKAIHYSEVGVIGYLEDQIMSLHTEIMELQKSPYGRRQGDLMESLEQRAIDLYKQLKHRPPDHLYSDSTEMVKIIVHTVQSQDRVLKELFGHLSKLLGCKQKIIDLLPKVEVALSNIKEADNTVMFMQGKRQKEIWHLLKIACTQSSARSLVGSSLEGTVTPPVSAWLPPTLADREHPLTCVVTPQDGETLAQMIEENLNCLGHLSTIIREANEDQSSSLMSLDWSWLAE
binding [2]: binds
binding [3]: binds

B2: phosphorylated IKKα (enzyme, UniProt Q60680 1-745)
chain: MERPPGLRPGAGGPWEMRERLGTGGFGNVSLYQHRELDLKIAIKSCRLELSSKNRERWCHEIQIMKKLDHANVVKACDVPEELNFLINDVPLLAMEYCSGGDLRKLLNKPENCCGLKESQILSLLSDIGSGIRYLHENKIIHRDLKPENIVLQDVGGKTIHKIIDLGYAKDVDQGSLCTSFVGTLQYLAPELFENKPYTATVDYWSFGTMVFECIAGYRPFLHHLQPFTWHEKIKKKDPKCIFACEEMTGEVRFSSHLPQPNSLCSLIVEPMESWLQLMLNWDPQQRGGPIDLTLKQPRCFALMDHILNLKIVHILNMTSAKIISFLLPCDESLHSLQSRIERETGINTGSQELLSETGISLDPRKPASQCVLDGVRGCDSYMVYLFDKSKTVYEGPFASRSLSDCVNYIVQDSKIQLPIIQLRKVWAEAVHYVSGLKEDYSRLFQGQRAAMLSLLRYNANLTKMKNTLISASQQLKAKLEFFRKSIQLDLERYSEQMTYGISSEKMLKAWKEMEEKAIHYSEVGVIGYLEDQIMSLHTEIMELQKSPYGRRQGDLMESLEQRAIDLYKQLKHRPPDHLYSDSTEMVKIIVHTVQSQDRVLKELFGHLSKLLGCKQKIIDLLPKVEVALSNIKEADNTVMFMQGKRQKEIWHLLKIACTQSSARSLVGSSLEGTVTPPVSAWLPPTLADREHPLTCVVTPQDGETLAQMIEENLNCLGHLSTIIREANEDQSSSLMSLDWSWLAE
modifications: phosphorylated (Ser176/180), as the detecting antibody is named
binding [4]: no binding
binding [2]: binds
